Results are given in words; binding and its absence hold for the method and conditions named. Some results given as binding are weak or reduced against the parent protein; the word gives no strength.

The chains behind the UniProt entries cited, without tags or fusion partners. Where a name states a change or a piece, a line headed by the entry shows the natural chain unless it says otherwise. Residues count along the entry.
UniProt A0A0H2US70: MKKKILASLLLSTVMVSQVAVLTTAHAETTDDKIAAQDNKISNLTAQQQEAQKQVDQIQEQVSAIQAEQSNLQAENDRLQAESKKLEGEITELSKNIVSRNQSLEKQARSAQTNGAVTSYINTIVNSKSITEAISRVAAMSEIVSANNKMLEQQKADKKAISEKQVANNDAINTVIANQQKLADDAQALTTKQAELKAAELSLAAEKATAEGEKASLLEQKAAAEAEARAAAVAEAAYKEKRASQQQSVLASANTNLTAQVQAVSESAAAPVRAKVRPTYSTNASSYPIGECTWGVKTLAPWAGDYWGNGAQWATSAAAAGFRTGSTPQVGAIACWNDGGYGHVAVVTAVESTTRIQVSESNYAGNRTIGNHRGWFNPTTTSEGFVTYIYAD
PcsB coiled-coil domain, PscBCC(47–254): residues 47-254 of A0A0H2US70

Experiment [1] deals with T1, FtsX large extracellular loop 1 (FtsX_(ECL1)), residues 46 to 168 (Streptococcus pneumoniae) (UniProt Q04LE4).
T1 sequence: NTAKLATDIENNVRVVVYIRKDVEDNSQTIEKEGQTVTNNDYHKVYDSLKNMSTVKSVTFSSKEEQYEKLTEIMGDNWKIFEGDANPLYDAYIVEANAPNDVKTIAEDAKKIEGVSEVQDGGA
The experiment is described as follows: NMR titration; 1H-15N HSQC; 50 µM 15N-labelled FtsX_(ECL1) with unlabelled PscBCC(47–267) added (0, 50, 100, 200, 400 µM); 298 K; 50 mM potassium phosphate, pH 7.0, 50 mM NaCl, 10% D2O; both purified.

Experiment [2] deals with PcsB coiled-coil domain, PscBCC(47–254) (Streptococcus pneumoniae). The experiment is described as follows: NMR titration; reciprocal 1H-15N HSQC; 50 µM 15N-labelled PscBCC(47–254) with 1, 2 and 4 molar equivalents of unlabelled FtsX_(ECL1); both purified.

For “PcsB coiled-coil domain, PscBCC(47–267) (from UniProt A0A0H2US70 47-267) (domain or fragment)”, the binding entry in experiment [1] is “binds”.

B1: FtsX large extracellular loop 1 (FtsX_(ECL1)), residues 46 to 168 (domain or fragment, Streptococcus pneumoniae, UniProt Q04LE4 46-168, looked up)
chain: T1 sequence
notes: FtsX, Streptococcus pneumoniae, large extracellular loop (ECL1), residues 46 to 168; Uniformly 15N-labelled when observed by NMR, unlabelled when added to 15N PcsBCC(47-254) and in ITC; also called wild-type (WT) FtsX_(ECL1); Spn ECL1; source: E. coli strain derived from BL21(DE3); LB or M9 minimal medium with 15NH4Cl
On to B1, for which, in experiment [2], the binding result is given as “binds”.
